Data reported in PubChem BioAssay AID330 (DTP/NCI, 2004).
The list shows only some results of the screen, not a fair sample: it gathers tests that were run many times, whatever their T/C, doses with no T/C, and many T/C values between a quarter and a half above the control. Other doses and runs of a compound stand elsewhere. T/C: endpoint of the treated group in % of that of the vehicle group. Some doses have a count of surviving animals in place of a T/C: the source files T/C as zero there, which appears to mark a toxic dose or a test without result, not a measured value. Some survivor counts are full or nearly so, which does not show that the dose was tolerated: the source hardly ever lists a survival T/C far under the control, and the zero likely stands for such cases as well. Survivors were counted at the toxicity check, usually on the fifth day, unless a day is given; later deaths do not show. Schedule codes are those of the source, read here as Q, the interval in days (D) or hours (H), X, the number of doses. Some entries were tested several times; the values are given in rising order. Where survival is the endpoint, the PubChem record calls one and a half times the control and up active, and a quarter to a half above the control has no call in these data; cut-offs in other NCI protocols can differ. Some T/C values are followed by the survivors on the day toxicity was checked, most often the fifth; without a count, all were alive then.

System: P388 leukemia ip, CD2F1 mice, survival T/C
Assay: NCI In Vivo Anticancer Drug Screen. Data for tumor model P388 Leukemia (intraperitoneal) in CD2F1 (CDF1) mice
Settings: T/C endpoint: median survival time, higher T/C = longer survival
[1] = dose: 3.13 mg/kg/injection, schedule: Q01DX009 (ip), vehicle: water
[2] = dose: 50.0 mg/kg/injection, schedule: Q01DX009 (ip), vehicle: distilled water + Tween-80
[3] = dose: 100.0 mg/kg/injection, schedule: Q01DX009 (ip), vehicle: distilled water + Tween-80
[4] = dose: 200.0 mg/kg/injection, schedule: Q01DX009 (ip), vehicle: distilled water + Tween-80
[5] = dose: 200.0 mg/kg/injection, schedule: Q01DX009 (ip), vehicle: Klucel (hydroxypropylcellulose) (HPC)
[6] = dose: 200.0 mg/kg/injection, schedule: Q01DX005 (ip), vehicle: saline with Tween-80
[7] = dose: 50.0 mg/kg/injection, schedule: Q01DX005 (ip), vehicle: saline with Tween-80
[8] = dose: 100.0 mg/kg/injection, schedule: Q01DX005 (ip), vehicle: saline with Tween-80
[9] = dose: 240.0 mg/kg/injection, schedule: Q01DX005 (ip), vehicle: saline with Tween-80
[10] = dose: 50.0 mg/kg/injection, schedule: Q01DX009 (ip), vehicle: saline
[11] = dose: 200.0 mg/kg/injection, schedule: Q01DX009 (ip), vehicle: saline

CNC(=O)OCc1c(COC(=O)NC)c2n(c1C)-c1ccccc1CCC2
T/C (dose: 5.0 mg/kg/injection, schedule: Q01DX005 (ip), vehicle: Klucel (hydroxypropylcellulose) (HPC)): 147 % of control
T/C (dose: 10.0 mg/kg/injection, schedule: Q01DX005 (ip), vehicle: Klucel (hydroxypropylcellulose) (HPC)): 141 % of control
survivor count (dose: 20.0 mg/kg/injection, schedule: Q01DX005 (ip), vehicle: Klucel (hydroxypropylcellulose) (HPC)): 6 of 6
survivor count (dose: 40.0 mg/kg/injection, schedule: Q01DX005 (ip), vehicle: Klucel (hydroxypropylcellulose) (HPC)): 0 of 6
survivor count (dose: 60.0 mg/kg/injection, schedule: Q01DX005 (ip), vehicle: Klucel (hydroxypropylcellulose) (HPC)): 0 of 6
survivor count (dose: 120.0 mg/kg/injection, schedule: Q01DX005 (ip), vehicle: Klucel (hydroxypropylcellulose) (HPC)): 0 of 6
survivor count (dose: 240.0 mg/kg/injection, schedule: Q01DX005 (ip), vehicle: Klucel (hydroxypropylcellulose) (HPC)): 0 of 6

CNC(=O)OCc1c(COC(=O)NC)c(-c2c(F)cccc2F)n2c1CCC2
T/C [1]: 148 % of control
T/C (dose: 12.5 mg/kg/injection, schedule: Q01DX009 (ip), vehicle: water): 148 % of control
survivor count [2]: 4 of 6
survivor count [3]: 0 of 6
survivor count [4]: 0 of 6

CCN(CC)CCNC(=O)C(=O)NCCN(CC)CC
survivor count (dose: 200.0 mg/kg/injection, schedule: Q01DX005 (ip), vehicle: saline): 0 of 5

O=c1ccc2cc3c(c(O)c2o1)OC=CC3
survivor count [5]: 3 of 6

Nc1ccc(-c2csc(-c3ccccc3)n2)c(Cl)c1
T/C (dose: 50.0 mg/kg/injection, schedule: Q01DX009 (ip), vehicle: Klucel (hydroxypropylcellulose) (HPC)): 128 % of control
survivor count (dose: 100.0 mg/kg/injection, schedule: Q01DX009 (ip), vehicle: Klucel (hydroxypropylcellulose) (HPC)): 5 of 6 and 6 of 6
survivor count [5]: 0 of 6

OC1(C(O)(c2ccc(-c3ccccc3)cc2)c2ccc(-c3ccccc3)cc2)CCCCC1
survivor count [6]: 6 of 6

C[Si]1(C)CC[Si](C)(C)OS(=O)(=O)CS(=O)(=O)O1
survivor count (dose: 200.0 mg/kg/injection, schedule: Q01DX005 (ip), vehicle: Klucel (hydroxypropylcellulose) (HPC)): 1 of 6

COC1=CC(=Nc2ccc(N(C)C)cc2)C=CC1=O
survivor count [7]: 0 of 5
survivor count [8]: 0 of 5
survivor count [6]: 0 of 5

COc1cc2c(cc1OC)C1=C(CC2)C2CCCN2CC1 (stereo not drawn)
survivor count (dose: 50.0 mg/kg/injection, schedule: Q04DX003 (ip), vehicle: saline): 6 of 6

CCCCS(=O)(=O)C(C)(Cl)C(=O)OCC (stereo not drawn)
survivor count (dose: 200.0 mg/kg/injection, schedule: Q01DX001 (ip), vehicle: saline with Tween-80): 0 of 6
survivor count (dose: 400.0 mg/kg/injection, schedule: Q01DX001 (ip), vehicle: saline with Tween-80): 0 of 6

CC(C(=O)O)N1C(=O)C=CC1=O (stereo not drawn)
survivor count (dose: 50.0 mg/kg/injection, schedule: Q01DX009 (ip), vehicle: saline with Tween-80): 0 of 6 and 1 of 6
survivor count (dose: 100.0 mg/kg/injection, schedule: Q01DX009 (ip), vehicle: saline with Tween-80): 0 of 6
survivor count (dose: 200.0 mg/kg/injection, schedule: Q01DX009 (ip), vehicle: saline with Tween-80): 0 of 6

C/C(=N\NC(=S)N1CCC(N2CCCCC2)CC1)c1ccccn1
survivor count (dose: 25.0 mg/kg/injection, schedule: Q01DX005 (ip), vehicle: saline with Tween-80): 3 of 6
survivor count [7]: 0 of 6
survivor count [8]: 0 of 6
survivor count [6]: 0 of 6

CC1CCC2(NC1)OC1CC3C4CCC5CC(OC6OC(CO)C(OC7OC(CO)C(O)C(OC8OCC(O)C(O)C8O)C7OC7OC(CO)C(O)C(O)C7O)C(O)C6O)CCC5(C)C4CCC3(C)C1C2C (stereo not drawn)
survivor count (dose: 25.0 mg/kg/injection, schedule: Q04DX003 (ip), vehicle: Klucel (hydroxypropylcellulose) (HPC)): 6 of 6
survivor count (dose: 100.0 mg/kg/injection, schedule: Q04DX003 (ip), vehicle: Klucel (hydroxypropylcellulose) (HPC)): 0 of 6
survivor count (dose: 200.0 mg/kg/injection, schedule: Q04DX003 (ip), vehicle: Klucel (hydroxypropylcellulose) (HPC)): 0 of 6
survivor count (dose: 400.0 mg/kg/injection, schedule: Q04DX003 (ip), vehicle: Klucel (hydroxypropylcellulose) (HPC)): 0 of 6

C[Se]C(C)(C)C(O)(Cc1ccccc1)c1ccccc1 (stereo not drawn)
survivor count (dose: 100.0 mg/kg/injection, schedule: Q04DX002 (ip), vehicle: saline with Tween-80): 0 of 6
survivor count (dose: 200.0 mg/kg/injection, schedule: Q04DX002 (ip), vehicle: saline with Tween-80): 0 of 6
survivor count (dose: 400.0 mg/kg/injection, schedule: Q04DX002 (ip), vehicle: saline with Tween-80): 0 of 6

O=C1C=CC(Nc2ccccc2[N+](=O)[O-])C1Nc1ccccc1[N+](=O)[O-] (stereo not drawn)
survivor count [9]: 3 of 6

CCCCCCC1(/C=C/c2ccc(Cl)c(Cl)c2)SCCS1
T/C [10]: 133 % of control
survivor count [10]: 6 of 6
survivor count [11]: 1 of 6

CC(=O)OCc1c(-c2ccccc2)nc2sccn12
survivor count (dose: 400.0 mg/kg/injection, schedule: Q01DX001 (ip), vehicle: Klucel (hydroxypropylcellulose) (HPC)): 1 of 6

CCN(CC)CCNc1ccnc(F)n1
survivor count (dose: 120.0 mg/kg/injection, schedule: Q01DX005 (ip), vehicle: saline with Tween-80): 0 of 6
survivor count [9]: 0 of 6

Cc1nnc2nc(N)[nH]n2c1=O
survivor count (dose: 200.0 mg/kg/injection, schedule: Q01DX005 (ip), vehicle: water): 0 of 6

O=C1N[C@@H]([C@H]2CC[C@H](Cl)CN2)C(=O)N[C@H]1[C@H]1CC[C@H](Cl)CN1
T/C (dose: 0.25 mg/kg/injection, schedule: Q01DX005 (ip), vehicle: saline): 134 % of control [5 of 6 alive]
T/C (dose: 0.5 mg/kg/injection, schedule: Q01DX005 (ip), vehicle: saline): 146 % of control
T/C (dose: 0.5 mg/kg/injection, schedule: Q01DX005 (oral), vehicle: saline): 127 % of control
T/C (dose: 1.0 mg/kg/injection, schedule: Q01DX005 (oral), vehicle: saline): 127 % of control [5 of 6 alive]
T/C [1]: 135 % of control
survivor count [1]: 6 of 6
survivor count (dose: 4.0 mg/kg/injection, schedule: Q01DX005 (oral), vehicle: saline): 6 of 6
survivor count (dose: 6.25 mg/kg/injection, schedule: Q01DX009 (ip), vehicle: water): 6 of 6
T/C (dose: 8.0 mg/kg/injection, schedule: Q01DX001 (ip), vehicle: saline): 147 % of control
survivor count (dose: 8.0 mg/kg/injection, schedule: Q01DX005 (oral), vehicle: saline): 3 of 6

CNC(=O)OCc1c(COC(=O)NC)c(-c2ccc(Cl)cc2)n(C)c1-c1ccccc1
T/C (dose: 3.13 mg/kg/injection, schedule: Q01DX009 (ip), vehicle: distilled water + Tween-80): 141 % of control
T/C (dose: 6.25 mg/kg/injection, schedule: Q01DX009 (ip), vehicle: distilled water + Tween-80): 140 % of control
T/C (dose: 12.5 mg/kg/injection, schedule: Q01DX009 (ip), vehicle: distilled water + Tween-80): 142 % of control
T/C [2]: 125 % of control
survivor count [3]: 5 of 6
survivor count [4]: 0 of 6

Cc1ccc(C(C)C)c2c1CN(CCCN1COc3c(C(C)C)ccc(C)c3C1)CO2
survivor count [9]: 6 of 6

CCC[CH2][Sn]1([CH2]CCC)[O]C2C(OC)OC3COC(c4ccccc4)OC3C2[O]1 (stereo not drawn)
survivor count (dose: 100.0 mg/kg/injection, schedule: Q04DX003 (ip), vehicle: suspension in saline): 5 of 6
survivor count (dose: 200.0 mg/kg/injection, schedule: Q04DX003 (ip), vehicle: suspension in saline): 1 of 6
survivor count (dose: 400.0 mg/kg/injection, schedule: Q04DX003 (ip), vehicle: suspension in saline): 0 of 6

O=C1c2ccccc2C(=O)N1O
survivor count [11]: 2 of 6
